Consider one substance from article PMC4658004.

Amino acid sequences for entries named in this document (tags omitted).
UniProt P62835: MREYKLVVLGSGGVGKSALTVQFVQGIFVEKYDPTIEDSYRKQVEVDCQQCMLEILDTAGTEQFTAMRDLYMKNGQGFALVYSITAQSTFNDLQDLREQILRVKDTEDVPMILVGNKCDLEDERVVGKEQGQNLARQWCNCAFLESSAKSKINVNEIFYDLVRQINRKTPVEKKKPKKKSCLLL

These are yes or no findings as the source states them, for the method shown. Binding seen in cells or lysates may run through a third protein. Some binding calls cover weakened binding; strength is not graded here. Tags and fused reporters may be left off the sequences shown.

The assay concerns the target T1, GST-tagged fusion protein corresponding to residues 788-884 of human Ral GDS-Rap binding domain (human) (UniProt Q12967).
T1 sequence: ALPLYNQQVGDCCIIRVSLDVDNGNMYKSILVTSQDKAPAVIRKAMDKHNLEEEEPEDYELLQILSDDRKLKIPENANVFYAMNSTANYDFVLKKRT
The assay can be described thus: pull-down; GST-RalGDS-RBD immobilized on glutathione-agarose, incubated with cell lysates (50 mM Tris-HCl pH 7.4, 0.5 M NaCl, 1% NP40, 2.5 mM MgCl2, 10% glycerol) at 4°C for 45 minutes; captured Rap1A detected by anti-Rap1A Western blot; C2C12 and MC3T3-E1 cells treated with osteogenic inducers (AA/β-GP) for the indicated times; only the target purified.

“Rap1A (active GTP-bound form) (from UniProt P62835 1-184)”: the binding entry is given as “binds”.
